From the supplement of paper PMC12823440, “Inhibitors supercharge kinase turnover through native proteolytic circuits” (Nature, 2025)
This is one part of the list. Hit calls seldom repeat between salt and free forms of one compound.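 Kinases, fused to nanoluciferase, were expressed in K562 cells; luminescence was measured every 4 h from 2 to 18 h as percent of control (DMSO = 100%, positive control = 0%). A time point is decreased if signal falls significantly (2 sigma). Hits were called by the authors by a rule that is not shown; the count of time points alone does not decide it.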

Protein sequences, listed by entry. Tags and fused reporters are not part of them. Lines headed by an entry give the natural chain unless they say otherwise; changes in a name come on top.
UniProt Q06187: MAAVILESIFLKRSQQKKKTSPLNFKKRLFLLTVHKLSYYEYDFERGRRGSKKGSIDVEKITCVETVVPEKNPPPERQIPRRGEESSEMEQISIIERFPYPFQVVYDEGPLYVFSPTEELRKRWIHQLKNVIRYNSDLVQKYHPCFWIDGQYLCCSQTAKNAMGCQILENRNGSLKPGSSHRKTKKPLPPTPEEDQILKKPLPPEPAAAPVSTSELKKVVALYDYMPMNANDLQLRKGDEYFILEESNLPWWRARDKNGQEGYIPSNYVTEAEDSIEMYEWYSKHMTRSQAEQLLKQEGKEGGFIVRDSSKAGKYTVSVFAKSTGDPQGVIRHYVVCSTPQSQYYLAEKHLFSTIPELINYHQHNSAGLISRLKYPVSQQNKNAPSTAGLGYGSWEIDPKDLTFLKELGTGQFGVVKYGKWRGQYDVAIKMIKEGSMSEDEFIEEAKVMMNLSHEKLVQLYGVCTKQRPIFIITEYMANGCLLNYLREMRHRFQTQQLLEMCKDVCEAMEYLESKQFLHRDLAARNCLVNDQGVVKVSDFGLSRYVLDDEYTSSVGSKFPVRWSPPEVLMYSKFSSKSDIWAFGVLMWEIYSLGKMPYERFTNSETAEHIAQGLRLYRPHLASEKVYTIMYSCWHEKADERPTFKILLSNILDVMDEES
UniProt Q9UQM7, whole entry: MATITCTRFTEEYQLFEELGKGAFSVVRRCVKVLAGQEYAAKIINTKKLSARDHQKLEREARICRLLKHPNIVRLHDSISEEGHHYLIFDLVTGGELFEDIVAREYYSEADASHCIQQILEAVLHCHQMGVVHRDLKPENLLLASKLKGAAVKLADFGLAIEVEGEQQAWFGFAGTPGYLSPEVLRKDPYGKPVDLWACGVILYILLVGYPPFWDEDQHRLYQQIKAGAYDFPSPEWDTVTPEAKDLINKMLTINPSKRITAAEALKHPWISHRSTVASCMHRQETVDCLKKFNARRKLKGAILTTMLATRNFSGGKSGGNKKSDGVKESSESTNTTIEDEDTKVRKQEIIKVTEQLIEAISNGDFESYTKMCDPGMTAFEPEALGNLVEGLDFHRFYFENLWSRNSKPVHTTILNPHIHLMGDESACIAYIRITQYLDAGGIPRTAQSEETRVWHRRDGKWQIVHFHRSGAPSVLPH
UniProt Q15131: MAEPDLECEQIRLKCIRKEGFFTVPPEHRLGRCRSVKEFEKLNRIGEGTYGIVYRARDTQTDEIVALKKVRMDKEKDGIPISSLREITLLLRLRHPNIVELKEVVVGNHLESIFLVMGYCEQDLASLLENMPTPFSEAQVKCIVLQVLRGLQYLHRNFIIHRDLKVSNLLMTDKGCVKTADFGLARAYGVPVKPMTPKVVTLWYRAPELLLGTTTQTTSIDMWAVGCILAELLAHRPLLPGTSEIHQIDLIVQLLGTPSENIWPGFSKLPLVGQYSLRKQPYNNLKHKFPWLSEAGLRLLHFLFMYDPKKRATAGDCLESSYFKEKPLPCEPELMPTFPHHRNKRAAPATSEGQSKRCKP
UniProt Q00526: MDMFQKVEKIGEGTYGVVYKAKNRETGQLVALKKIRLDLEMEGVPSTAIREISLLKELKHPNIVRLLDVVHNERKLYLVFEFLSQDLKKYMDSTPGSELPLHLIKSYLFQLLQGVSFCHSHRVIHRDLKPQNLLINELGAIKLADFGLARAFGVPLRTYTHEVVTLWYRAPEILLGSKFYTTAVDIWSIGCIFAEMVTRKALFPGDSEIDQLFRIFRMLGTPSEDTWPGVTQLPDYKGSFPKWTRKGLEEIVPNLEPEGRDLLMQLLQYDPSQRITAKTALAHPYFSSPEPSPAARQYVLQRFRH
UniProt P11802: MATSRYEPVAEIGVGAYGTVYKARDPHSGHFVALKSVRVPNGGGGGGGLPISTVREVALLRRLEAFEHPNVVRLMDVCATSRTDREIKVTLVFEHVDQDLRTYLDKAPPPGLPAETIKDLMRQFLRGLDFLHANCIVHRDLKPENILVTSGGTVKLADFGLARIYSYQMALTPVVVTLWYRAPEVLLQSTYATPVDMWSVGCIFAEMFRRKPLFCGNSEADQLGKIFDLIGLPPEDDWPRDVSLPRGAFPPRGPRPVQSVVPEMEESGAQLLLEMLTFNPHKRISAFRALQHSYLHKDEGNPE
UniProt Q00535, whole entry, looked up: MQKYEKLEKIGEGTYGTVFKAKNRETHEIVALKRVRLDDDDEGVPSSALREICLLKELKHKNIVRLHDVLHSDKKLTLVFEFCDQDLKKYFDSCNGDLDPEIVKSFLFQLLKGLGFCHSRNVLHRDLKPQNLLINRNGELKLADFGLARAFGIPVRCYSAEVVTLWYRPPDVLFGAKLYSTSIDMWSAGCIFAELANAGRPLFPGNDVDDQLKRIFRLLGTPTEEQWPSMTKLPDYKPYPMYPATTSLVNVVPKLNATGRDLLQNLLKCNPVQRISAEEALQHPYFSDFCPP
UniProt Q00534, whole entry: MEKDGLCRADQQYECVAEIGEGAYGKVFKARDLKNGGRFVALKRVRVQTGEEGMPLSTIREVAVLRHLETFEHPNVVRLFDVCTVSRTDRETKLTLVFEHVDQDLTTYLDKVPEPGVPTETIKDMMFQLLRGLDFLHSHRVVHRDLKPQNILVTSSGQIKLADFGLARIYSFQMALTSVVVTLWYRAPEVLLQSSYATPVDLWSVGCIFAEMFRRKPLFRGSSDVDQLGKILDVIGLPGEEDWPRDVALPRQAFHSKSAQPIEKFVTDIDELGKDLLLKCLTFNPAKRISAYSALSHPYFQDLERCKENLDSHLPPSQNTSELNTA
UniProt P50750, whole entry: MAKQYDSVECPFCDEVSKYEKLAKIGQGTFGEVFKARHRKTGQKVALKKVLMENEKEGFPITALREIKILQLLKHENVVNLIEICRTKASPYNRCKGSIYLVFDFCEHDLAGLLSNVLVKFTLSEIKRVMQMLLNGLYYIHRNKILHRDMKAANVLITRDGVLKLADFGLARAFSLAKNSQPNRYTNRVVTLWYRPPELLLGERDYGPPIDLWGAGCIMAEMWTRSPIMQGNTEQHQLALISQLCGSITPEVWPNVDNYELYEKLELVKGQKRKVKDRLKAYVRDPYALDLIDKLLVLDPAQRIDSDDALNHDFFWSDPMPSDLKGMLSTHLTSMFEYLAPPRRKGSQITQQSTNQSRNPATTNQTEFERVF
UniProt O96017, whole entry: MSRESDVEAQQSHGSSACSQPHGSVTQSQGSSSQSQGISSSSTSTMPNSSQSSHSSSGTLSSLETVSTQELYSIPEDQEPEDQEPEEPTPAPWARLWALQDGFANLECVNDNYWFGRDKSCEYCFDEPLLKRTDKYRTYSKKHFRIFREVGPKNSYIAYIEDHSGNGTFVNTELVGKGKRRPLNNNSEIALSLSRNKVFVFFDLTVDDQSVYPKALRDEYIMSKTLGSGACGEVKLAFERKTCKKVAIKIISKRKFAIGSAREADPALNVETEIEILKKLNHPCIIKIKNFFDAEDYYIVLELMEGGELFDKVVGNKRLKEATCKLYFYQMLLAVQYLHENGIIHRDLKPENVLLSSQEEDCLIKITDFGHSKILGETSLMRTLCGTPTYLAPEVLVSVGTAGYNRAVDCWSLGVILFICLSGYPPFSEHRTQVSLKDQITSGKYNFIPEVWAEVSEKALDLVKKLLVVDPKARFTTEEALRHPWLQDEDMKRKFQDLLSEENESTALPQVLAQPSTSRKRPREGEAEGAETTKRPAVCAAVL
UniProt P07333, whole entry: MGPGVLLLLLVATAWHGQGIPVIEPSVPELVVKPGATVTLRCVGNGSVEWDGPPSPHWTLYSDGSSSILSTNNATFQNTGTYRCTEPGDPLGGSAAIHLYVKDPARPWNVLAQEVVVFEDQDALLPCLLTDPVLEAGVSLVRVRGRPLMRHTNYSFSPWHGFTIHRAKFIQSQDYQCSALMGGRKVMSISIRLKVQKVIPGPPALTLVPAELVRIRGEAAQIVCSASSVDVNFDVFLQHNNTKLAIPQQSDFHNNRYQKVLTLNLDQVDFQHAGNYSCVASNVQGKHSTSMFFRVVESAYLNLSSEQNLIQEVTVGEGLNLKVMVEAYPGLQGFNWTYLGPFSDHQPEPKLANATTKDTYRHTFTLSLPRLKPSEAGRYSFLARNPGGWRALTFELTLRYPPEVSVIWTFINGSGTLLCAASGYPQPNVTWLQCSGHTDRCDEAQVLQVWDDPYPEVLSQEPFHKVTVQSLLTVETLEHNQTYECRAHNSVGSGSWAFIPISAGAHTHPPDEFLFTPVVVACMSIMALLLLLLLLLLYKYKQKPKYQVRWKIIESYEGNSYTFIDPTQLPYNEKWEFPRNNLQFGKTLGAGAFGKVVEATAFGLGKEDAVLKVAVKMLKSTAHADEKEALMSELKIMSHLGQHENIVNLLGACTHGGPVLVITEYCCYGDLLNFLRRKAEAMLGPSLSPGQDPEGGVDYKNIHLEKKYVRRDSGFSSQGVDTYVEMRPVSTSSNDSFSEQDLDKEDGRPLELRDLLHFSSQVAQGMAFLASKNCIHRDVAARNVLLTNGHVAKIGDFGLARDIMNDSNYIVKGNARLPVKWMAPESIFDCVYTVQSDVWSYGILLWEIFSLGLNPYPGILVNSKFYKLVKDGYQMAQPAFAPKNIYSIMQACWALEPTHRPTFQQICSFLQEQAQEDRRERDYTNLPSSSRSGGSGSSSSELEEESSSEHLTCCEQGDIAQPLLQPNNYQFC
UniProt P41240: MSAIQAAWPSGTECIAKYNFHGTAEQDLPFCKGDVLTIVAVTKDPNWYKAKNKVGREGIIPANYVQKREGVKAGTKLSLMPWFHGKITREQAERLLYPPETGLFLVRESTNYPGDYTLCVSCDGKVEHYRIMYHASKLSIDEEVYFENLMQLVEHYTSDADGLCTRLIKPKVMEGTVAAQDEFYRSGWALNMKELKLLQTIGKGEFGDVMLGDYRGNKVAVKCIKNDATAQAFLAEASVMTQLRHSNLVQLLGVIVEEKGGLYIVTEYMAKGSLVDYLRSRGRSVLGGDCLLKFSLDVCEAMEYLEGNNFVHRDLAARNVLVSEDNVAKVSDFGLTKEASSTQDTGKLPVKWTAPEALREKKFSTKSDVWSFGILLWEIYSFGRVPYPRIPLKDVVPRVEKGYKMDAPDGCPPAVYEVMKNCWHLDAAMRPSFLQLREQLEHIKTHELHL
UniProt P48729: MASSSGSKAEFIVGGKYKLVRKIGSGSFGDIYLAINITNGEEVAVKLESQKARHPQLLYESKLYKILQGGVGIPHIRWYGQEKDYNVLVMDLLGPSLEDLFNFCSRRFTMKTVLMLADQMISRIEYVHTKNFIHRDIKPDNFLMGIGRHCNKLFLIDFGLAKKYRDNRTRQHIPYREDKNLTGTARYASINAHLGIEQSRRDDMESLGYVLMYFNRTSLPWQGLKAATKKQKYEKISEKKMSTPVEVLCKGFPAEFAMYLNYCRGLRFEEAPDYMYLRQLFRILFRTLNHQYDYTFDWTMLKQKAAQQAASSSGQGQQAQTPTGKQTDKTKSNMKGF
UniProt P48730: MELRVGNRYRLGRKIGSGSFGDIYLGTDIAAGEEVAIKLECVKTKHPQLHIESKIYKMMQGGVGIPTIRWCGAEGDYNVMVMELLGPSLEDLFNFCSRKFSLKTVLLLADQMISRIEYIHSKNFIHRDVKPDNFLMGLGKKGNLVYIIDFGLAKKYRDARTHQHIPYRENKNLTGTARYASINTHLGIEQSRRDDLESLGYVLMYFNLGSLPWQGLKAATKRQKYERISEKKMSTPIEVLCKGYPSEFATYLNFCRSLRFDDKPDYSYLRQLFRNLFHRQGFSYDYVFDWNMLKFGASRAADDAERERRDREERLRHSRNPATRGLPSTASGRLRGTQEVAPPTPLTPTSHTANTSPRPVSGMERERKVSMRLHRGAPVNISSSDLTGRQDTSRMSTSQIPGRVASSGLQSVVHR
UniProt Q92630: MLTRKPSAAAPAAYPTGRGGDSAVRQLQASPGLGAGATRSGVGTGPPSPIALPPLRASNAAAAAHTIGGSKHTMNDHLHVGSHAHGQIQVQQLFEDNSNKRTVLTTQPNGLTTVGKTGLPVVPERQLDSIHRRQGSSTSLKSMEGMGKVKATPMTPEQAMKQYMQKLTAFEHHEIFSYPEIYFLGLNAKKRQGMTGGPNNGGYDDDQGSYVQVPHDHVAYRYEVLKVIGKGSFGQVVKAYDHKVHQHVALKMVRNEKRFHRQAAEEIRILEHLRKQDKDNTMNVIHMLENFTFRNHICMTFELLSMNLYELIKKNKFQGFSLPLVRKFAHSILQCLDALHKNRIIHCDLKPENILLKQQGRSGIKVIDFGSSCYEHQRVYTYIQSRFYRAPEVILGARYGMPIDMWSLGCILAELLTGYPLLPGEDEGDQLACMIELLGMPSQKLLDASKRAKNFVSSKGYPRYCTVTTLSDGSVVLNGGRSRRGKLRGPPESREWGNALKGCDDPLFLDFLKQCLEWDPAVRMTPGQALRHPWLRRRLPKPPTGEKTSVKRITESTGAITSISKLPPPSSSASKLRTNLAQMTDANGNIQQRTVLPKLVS

Tests used:
Assay in all cases: kinase-Nluc reporter destabilization hit call (1 = scored as downregulated) (binary); higher = compound decreases kinase abundance
Conditions in all cases: K562; 2-18 h
BRAF_V600E = tested on: BRAF_V600E
BTK = BTK (UniProt Q06187)
CAMK2A = CAMK2A (UniProt Q9UQM7)
CAMK2G = CAMK2G (UniProt Q13555)
CDK10 = CDK10 (UniProt Q15131)
CDK2 = CDK2 (UniProt P24941)
CDK3 = CDK3 (UniProt Q00526)
CDK4 = CDK4 (UniProt P11802)
CDK5 = CDK5 (UniProt Q00535)
CDK6 = CDK6 (UniProt Q00534)
CDK7 = CDK7 (UniProt P50613)
CDK9 = CDK9 (UniProt P50750)
CHEK2 = CHEK2 (UniProt O96017)
CSF1R = CSF1R (UniProt P07333)
CSK = CSK (UniProt P41240)
CSNK1A1 = CSNK1A1 (UniProt P48729)
CSNK1D = CSNK1D (UniProt P48730)
DDR1 = DDR1 (UniProt Q08345)
DYRK1B = DYRK1B (UniProt Q9Y463)
DYRK2 = DYRK2 (UniProt Q92630)

Measured: kinase-Nluc reporter destabilization hit call

Cc1nn(C)c2c1C(c1ccc(C(F)(F)F)cc1)C(C#N)=C(N)O2 (stereo not given) (10 µM)
inactive: BRAF_V600E 0 | BTK 0 | CAMK2A 0 | CAMK2G 0 | CDK10 = 0 | CDK2 = 0 | CDK3 = 0 | CDK4 = 0 | CDK5 = 0 | CDK6 = 0 | CDK7 = 0 | CDK9 = 0 | CHEK2 = 0 | CSF1R 0 | CSK 0 | CSNK1A1 = 0 | CSNK1D 0 | DDR1 = 0 | DYRK1B 0 | DYRK2 = 0

COc1ccc(-c2c(C)nn3c(NCCN4CCOCC4)cc(C)nc23)cc1OC (10 µM)
inactive: BRAF_V600E 0 | BTK 0 | CAMK2A 0 | CAMK2G 0 | CDK10 = 0 | CDK2 = 0 | CDK3 = 0 | CDK4 = 0 | CDK5 = 0 | CDK6 = 0 | CDK7 = 0 | CDK9 = 0 | CHEK2 = 0 | CSF1R 0 | CSK 0 | CSNK1A1 = 0 | CSNK1D 0 | DDR1 = 0 | DYRK1B 0 | DYRK2 = 0

CC/C(=N\NC(=O)c1ccnc(NCCCN2CCOCC2)c1)c1ccc(Cl)cc1O (2.5 µM)
inactive: BRAF_V600E 0 | BTK 0 | CAMK2A 0 | CAMK2G 0 | CDK10 = 0 | CDK2 = 0 | CDK3 = 0 | CDK4 = 0 | CDK5 = 0 | CDK6 = 0 | CDK7 = 0 | CDK9 = 0 | CHEK2 = 0 | CSF1R 0 | CSK 0 | CSNK1A1 = 0 | CSNK1D 0 | DDR1 = 0 | DYRK1B 0 | DYRK2 = 0

O=C(CNc1cccc(Cl)c1)NC1CCCN(c2ncnc3[nH]ccc23)C1 (stereo not given) (10 µM)
inactive: BRAF_V600E 0 | BTK 0 | CAMK2A 0 | CAMK2G 0 | CDK10 = 0 | CDK2 = 0 | CDK3 = 0 | CDK4 = 0 | CDK5 = 0 | CDK6 = 0 | CDK7 = 0 | CDK9 = 0 | CHEK2 = 0 | CSF1R 0 | CSK 0 | CSNK1A1 = 0 | CSNK1D 0 | DDR1 = 0 | DYRK1B 0 | DYRK2 = 0

C=CC(=O)N1CCC[C@H](n2c(=O)n(-c3ccc(Oc4ccccc4)cc3)c3c(N)ncnc32)C1 [ONO-4059 (analog)] (10 µM)
inactive: BRAF_V600E 0 | BTK 0 | CAMK2A 0 | CAMK2G 0 | CDK10 = 0 | CDK2 = 0 | CDK3 = 0 | CDK4 = 0 | CDK5 = 0 | CDK6 = 0 | CDK7 = 0 | CDK9 = 0 | CHEK2 = 0 | CSF1R 0 | CSK 0 | CSNK1A1 = 0 | CSNK1D 0 | DDR1 = 0 | DYRK1B 0 | DYRK2 = 0

Cc1cnc(NC2CCOCC2)nc1-n1cnc(C(=O)N[C@H](CN)c2cc(F)cc(Cl)c2)c1 (10 µM)
inactive: BRAF_V600E 0 | BTK 0 | CAMK2A 0 | CAMK2G 0 | CDK10 = 0 | CDK2 = 0 | CDK3 = 0 | CDK4 = 0 | CDK5 = 0 | CDK6 = 0 | CDK7 = 0 | CDK9 = 0 | CHEK2 = 0 | CSF1R 0 | CSK 0 | CSNK1A1 = 0 | CSNK1D 0 | DDR1 = 0 | DYRK1B 0 | DYRK2 = 0

C=CC(=O)Nc1cccc(-c2cccc3cnc(Nc4ccc(N5CCN(CCO)CC5)c(F)c4F)nc23)c1 [Olafertinib] (2.5 µM)
inactive: BRAF_V600E 0 | BTK 0 | CAMK2A 0 | CAMK2G 0 | CDK10 = 0 | CDK2 = 0 | CDK3 = 0 | CDK4 = 0 | CDK5 = 0 | CDK6 = 0 | CDK7 = 0 | CDK9 = 0 | CHEK2 = 0 | CSF1R 0 | CSK 0 | CSNK1A1 = 0 | CSNK1D 0 | DDR1 = 0 | DYRK1B 0 | DYRK2 = 0

COc1ccc(-c2coc3cc(O)ccc3c2=O)cc1 [Formononetin] (10 µM)
inactive: BRAF_V600E 0 | BTK 0 | CAMK2A 0 | CAMK2G 0 | CDK10 = 0 | CDK2 = 0 | CDK3 = 0 | CDK4 = 0 | CDK5 = 0 | CDK6 = 0 | CDK7 = 0 | CDK9 = 0 | CHEK2 = 0 | CSF1R 0 | CSK 0 | CSNK1A1 = 0 | CSNK1D 0 | DDR1 = 0 | DYRK1B 0 | DYRK2 = 0

Cn1cc(-c2cnc3cnn(S(=O)(=O)c4cnc5ccc(-c6cnn(C)c6)cn45)c3c2)cn1 [Glumetinib] (10 µM)
inactive: BRAF_V600E 0 | BTK 0 | CAMK2A 0 | CAMK2G 0 | CDK10 = 0 | CDK2 = 0 | CDK3 = 0 | CDK4 = 0 | CDK5 = 0 | CDK6 = 0 | CDK7 = 0 | CDK9 = 0 | CHEK2 = 0 | CSF1R 0 | CSK 0 | CSNK1A1 = 0 | CSNK1D 0 | DDR1 = 0 | DYRK1B 0 | DYRK2 = 0

C[C@@H]1COCCN1c1nc(-c2cnc(N)cc2C(F)F)nc(N2[C@H](C)COC[C@@H]2C)n1 (2.5 µM)
inactive: BRAF_V600E 0 | BTK 0 | CAMK2A 0 | CAMK2G 0 | CDK10 = 0 | CDK2 = 0 | CDK3 = 0 | CDK4 = 0 | CDK5 = 0 | CDK6 = 0 | CDK7 = 0 | CDK9 = 0 | CHEK2 = 0 | CSF1R 0 | CSK 0 | CSNK1A1 = 0 | CSNK1D 0 | DDR1 = 0 | DYRK1B 0 | DYRK2 = 0

CCc1ccc(OCC(=O)Nc2ccc(F)c([N+](=O)[O-])c2)cc1 (10 µM)
inactive: BRAF_V600E 0 | BTK 0 | CAMK2A 0 | CAMK2G 0 | CDK10 = 0 | CDK2 = 0 | CDK3 = 0 | CDK4 = 0 | CDK5 = 0 | CDK6 = 0 | CDK7 = 0 | CDK9 = 0 | CHEK2 = 0 | CSF1R 0 | CSK 0 | CSNK1A1 = 0 | CSNK1D 0 | DDR1 = 0 | DYRK1B 0 | DYRK2 = 0

Already shown: 2 of the compounds above.
COc1ccc(-c2c(C)nn3c(NCCN4CCOCC4)cc(C)nc23)cc1OC (10 µM)
inactive: BRAF_V600E 0 | BTK 0 | CAMK2A 0 | CAMK2G 0 | CDK10 = 0 | CDK2 = 0 | CDK3 = 0 | CDK4 = 0 | CDK5 = 0 | CDK6 = 0 | CDK7 = 0 | CDK9 = 0 | CHEK2 = 0 | CSF1R 0 | CSK 0 | CSNK1A1 = 0 | CSNK1D 0 | DDR1 = 0 | DYRK1B 0 | DYRK2 = 0

CC/C(=N\NC(=O)c1ccnc(NCCCN2CCOCC2)c1)c1ccc(Cl)cc1O (2.5 µM)
inactive: BRAF_V600E 0 | BTK 0 | CAMK2A 0 | CAMK2G 0 | CDK10 = 0 | CDK2 = 0 | CDK3 = 0 | CDK4 = 0 | CDK5 = 0 | CDK6 = 0 | CDK7 = 0 | CDK9 = 0 | CHEK2 = 0 | CSF1R 0 | CSK 0 | CSNK1A1 = 0 | CSNK1D 0 | DDR1 = 0 | DYRK1B 0 | DYRK2 = 0

The listing continues:

O=C(Nc1nc2ccc(NC(=O)C34CC5CC(CC(C5)C3)C4)cc2s1)c1ccccc1 (10 µM)
inactive: BRAF_V600E 0 | BTK 0 | CAMK2A 0 | CAMK2G 0 | CDK10 = 0 | CDK2 = 0 | CDK3 = 0 | CDK4 = 0 | CDK5 = 0 | CDK6 = 0 | CDK7 = 0 | CDK9 = 0 | CHEK2 = 0 | CSF1R 0 | CSK 0 | CSNK1A1 = 0 | CSNK1D 0 | DDR1 = 0 | DYRK1B 0 | DYRK2 = 0

Nc1c(C(=O)NCc2ccc(C(=O)NCCCC3CCCCC3)cc2)cnn1-c1ccccc1 (2.5 µM)
inactive: BRAF_V600E 0 | BTK 0 | CAMK2A 0 | CAMK2G 0 | CDK10 = 0 | CDK2 = 0 | CDK3 = 0 | CDK4 = 0 | CDK5 = 0 | CDK6 = 0 | CDK7 = 0 | CDK9 = 0 | CHEK2 = 0 | CSF1R 0 | CSK 0 | CSNK1A1 = 0 | CSNK1D 0 | DDR1 = 0 | DYRK1B 0 | DYRK2 = 0

c1cc(NC2CCNCC2)nc(-c2cnc3ccccn23)c1 [IRAK inhibitor 1] (10 µM)
inactive: BRAF_V600E 0 | BTK 0 | CAMK2A 0 | CAMK2G 0 | CDK10 = 0 | CDK2 = 0 | CDK3 = 0 | CDK4 = 0 | CDK5 = 0 | CDK6 = 0 | CDK7 = 0 | CDK9 = 0 | CHEK2 = 0 | CSF1R 0 | CSK 0 | CSNK1A1 = 0 | CSNK1D 0 | DDR1 = 0 | DYRK1B 0 | DYRK2 = 0

COCCNc1cc(NC(=O)N2CCCc3cc(CN4CCN(C)CC4=O)c(C=O)nc32)ncc1C#N [Roblitinib] (10 µM)
inactive: BRAF_V600E 0 | BTK 0 | CAMK2A 0 | CAMK2G 0 | CDK10 = 0 | CDK2 = 0 | CDK3 = 0 | CDK4 = 0 | CDK5 = 0 | CDK6 = 0 | CDK7 = 0 | CDK9 = 0 | CHEK2 = 0 | CSF1R 0 | CSK 0 | CSNK1A1 = 0 | CSNK1D 0 | DDR1 = 0 | DYRK1B 0 | DYRK2 = 0

O=C(Nc1nc2ccccc2[nH]1)c1cccc([N+](=O)[O-])c1 [IRAK-4 protein kinase inhibitor 2] (10 µM)
inactive: BRAF_V600E 0 | BTK 0 | CAMK2A 0 | CAMK2G 0 | CDK10 = 0 | CDK2 = 0 | CDK3 = 0 | CDK4 = 0 | CDK5 = 0 | CDK6 = 0 | CDK7 = 0 | CDK9 = 0 | CHEK2 = 0 | CSF1R 0 | CSK 0 | CSNK1A1 = 0 | CSNK1D 0 | DDR1 = 0 | DYRK1B 0 | DYRK2 = 0

C[C@H](NC(=O)[C@H]1NCC[C@@H]1O)c1ccc(-c2noc(CCC3CCCC3)n2)cc1 (10 µM)
inactive: BRAF_V600E 0 | BTK 0 | CAMK2A 0 | CAMK2G 0 | CDK10 = 0 | CDK2 = 0 | CDK3 = 0 | CDK4 = 0 | CDK5 = 0 | CDK6 = 0 | CDK7 = 0 | CDK9 = 0 | CHEK2 = 0 | CSF1R 0 | CSK 0 | CSNK1A1 = 0 | CSNK1D 0 | DDR1 = 0 | DYRK1B 0 | DYRK2 = 0

O=C(Nc1nc(=O)n(Cc2ccc(Cl)cc2)s1)c1ccc(Cl)cc1 (10 µM)
inactive: BRAF_V600E 0 | BTK 0 | CAMK2A 0 | CAMK2G 0 | CDK10 = 0 | CDK2 = 0 | CDK3 = 0 | CDK4 = 0 | CDK5 = 0 | CDK6 = 0 | CDK7 = 0 | CDK9 = 0 | CHEK2 = 0 | CSF1R 0 | CSK 0 | CSNK1A1 = 0 | CSNK1D 0 | DDR1 = 0 | DYRK1B 0 | DYRK2 = 0
